“Also recorded” adds a separate entry of the source. Part of at least one peptide drawing is inferred or uncertain, most often the ends. No end group written: not given here.
How the values were obtained:
non-neutralizing mAb B2b = experiment: ELISA binding of mAb B2b to plate-dried synthetic peptides; conditions: 50 μg peptide per well dried to well; goat anti-mouse/HRP, ABTS
Protocol: (§1) A series of enzyme-linked immunosorbent assays (ELISA) were run in which a panel of three neutralizing mab's, identified as A1, A5 and A7 (developed by […] Grossberg at the Medical College of Wisconsin) and a single non-neutralizing mAb, identified as B2b (received from Medical College of Wisconsin, […] and S. Grossberg), was assessed for binding to synthetic peptides IB, IC, IE, and a control. In each case, the peptide was dissolved in 0.05M Tris buffer, pH 9.5 and aliquoted in 100 μl volumes to wells of a microtiter plate (Corning) at a concentration of 50 μg peptide per well. The plate was placed in a vacuum dessicator overnight to dry the peptide to the well. Standard ELISA procedures were followed after the overnight coupling, i.e. common blocking steps, washes, incubation conditions and color development of the appropriate goat anti-mouse/horseradish peroxidase conjugate with ABTS substrate. […] The non neutralizing mAb B2b reacted with peptides IB and IC but not with IE.

neutralizing mAb A1 = experiment: ELISA binding of mAb A1 to plate-dried synthetic peptides; conditions: 50 μg peptide per well dried to well; goat anti-mouse/HRP, ABTS
neutralizing mAb A7 = experiment: ELISA binding of mAb A7 to plate-dried synthetic peptides; conditions: 50 μg peptide per well dried to well; goat anti-mouse/HRP, ABTS
Protocol: as §1

[1] = system: neutralizing mAb A7 binding to IFN-β; experiment: ELISA: inhibition by synthetic peptides of mAb A7 binding to IFN-β; conditions: mAb preincubated overnight at 4° C. with 10^4 molar excess of peptide; IFN-β 50 ng/well
[2] = system: neutralizing mAb A5 binding to IFN-β; experiment: ELISA: inhibition by synthetic peptides of mAb A5 binding to IFN-β; conditions: mAb preincubated overnight at 4° C. with 10^4 molar excess of peptide; IFN-β 50 ng/well
[3] = system: non-neutralizing mAb B2b binding to IFN-β; experiment: ELISA: inhibition by synthetic peptides of mAb B2b binding to IFN-β; conditions: mAb preincubated overnight at 4° C. with 10^4 molar excess of peptide; IFN-β 50 ng/well
[4] = system: neutralizing mAb A1 binding to IFN-β; experiment: ELISA: inhibition by synthetic peptides of mAb A1 binding to IFN-β; conditions: mAb preincubated overnight at 4° C. with 10^4 molar excess of peptide; IFN-β 50 ng/well

| Sequence | Reaction (binding) of non-neutralizing mAb B2b with peptide in ELISA (non-neutralizing mAb B2b) | Reaction (binding) of mAb A1 with peptide in ELISA (neutralizing mAb A1) | Reaction (binding) of mAb A7 with peptide in ELISA (neutralizing mAb A7) | Reduction of mAb A7 binding to IFN-β [1] | Inhibition of mAb A5 binding to IFN-β [2] | Decrease of non-neutralizing mAb B2b binding to IFN-β [3] | Inhibition of mAb A1 binding to IFN-β [4] |
| --- | --- | --- | --- | --- | --- | --- | --- |
| LKDRMNFDIPEEIKQL [peptide IB, Leu-Lys-Asp-Arg-Met-Asn-Phe-Asp-Ile-Pro-Glu-Glu-Ile-Lys-Gln-Leu] | reacted with | reacted well; also recorded: preferential binding | reacted well | 60% | significantly inhibited | about 20% | 80% |
| IPEEIKQLQQFQKEDAA [peptide IC, Ile-Pro-Glu-Glu-Ile-Lys-Gln-Leu-Gln-Gln-Phe-Gln-Lys-Glu-Asp-Ala-Ala] | reacted with | reacted well; also recorded: preferential binding | reacted well | 60% | significantly inhibited | about 20% | completely inhibited |
